The values below come from paper PMC11633110.

The target in this data set is T1, SydR' (WT, CC) (Sinorhizobium meliloti Rm2011) (UniProt Q92XY2).
T1 sequence (looked up): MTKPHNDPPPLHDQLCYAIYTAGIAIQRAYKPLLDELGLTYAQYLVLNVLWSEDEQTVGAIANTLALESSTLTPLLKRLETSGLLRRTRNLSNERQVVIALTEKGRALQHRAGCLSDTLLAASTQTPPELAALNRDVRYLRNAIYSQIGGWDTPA
The data set is described as follows: EMSA. The note with it: 1 uM NaOCl (oxidative inhibition); 10 mM Tris-HCl pH 8, 50 mM KCl, 0.5 mM EDTA, 10% glycerol, 0.5 mM DTT, 10 nM DNA, 25°C 25 min; 8% PAGE in 0.5x TBE; recombinant protein; residues 1-155; protein details: His6 (C-terminal as stated, pET28a NdeI/SalI); probe letters rebuilt from the primers and the genome. A general note: A gel shift assay detects complexes by their altered migration in electrophoresis.

For at least one entry, the source does not settle the construct or the ends of the probe. The comparison behind a weaker result is the experiment's own reference, which may not be listed here. Tags and fusion partners may be left off the protein sequences shown.

With “TCTGGGCTCCTTTGCGCACCAATATAATCAAGATTACCGCGAAAACCAATATCGCGATAAGAGATATGTTGACGAGCAGTTCAATATCTGACAACTTAAATATATCGCGATAACAGTTATCGCTATCAACGAAAGGAAAAAGCC (double strand) [sydR-SMa2023 intergenic region, 144 bp]”, the binding result was “binds more weakly”.
